These are yes or no findings as the source states them, for the method shown. In cells and extracts the contact can be indirect. Some entries that bind do so weakly or less than the wild type.
Experiments:
[1] = target: KLF4 (human (endogenous in HCC primary spheres)) (UniProt O43474); test: co-IP; HCC primary spheres, co-IP with KLF4 antibody
[2] = target: ARID1A (human (endogenous in HCC spheres)) (UniProt O14497); test: co-IP; spheres (S) and non-sphere cells (N) lysed, immunoprecipitation with BAF170 and ARID1A antibodies, BRG1 and BRM by western blotting; also oncosphere lysates with added lncBRM transcripts and lncBRM-depleted spheres
[3] = target: BAF170 (human (endogenous in HCC spheres)) (UniProt Q8TAQ2); test: as above

The chains behind the UniProt entries cited, without tags or fusion partners.
UniProt O43474: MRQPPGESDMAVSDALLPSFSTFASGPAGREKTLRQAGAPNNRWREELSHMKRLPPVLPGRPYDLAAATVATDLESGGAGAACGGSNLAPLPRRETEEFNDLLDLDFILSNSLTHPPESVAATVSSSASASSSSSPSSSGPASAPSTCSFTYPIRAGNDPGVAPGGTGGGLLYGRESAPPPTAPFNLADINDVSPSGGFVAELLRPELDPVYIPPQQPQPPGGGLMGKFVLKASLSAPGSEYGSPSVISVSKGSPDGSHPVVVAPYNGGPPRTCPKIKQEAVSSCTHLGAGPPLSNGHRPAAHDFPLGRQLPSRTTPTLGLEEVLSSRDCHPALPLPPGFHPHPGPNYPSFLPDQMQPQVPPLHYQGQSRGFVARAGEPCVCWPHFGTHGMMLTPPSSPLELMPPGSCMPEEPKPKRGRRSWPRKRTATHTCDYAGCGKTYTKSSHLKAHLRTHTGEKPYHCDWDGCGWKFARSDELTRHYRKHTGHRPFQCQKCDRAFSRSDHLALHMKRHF
UniProt Q8TAQ2: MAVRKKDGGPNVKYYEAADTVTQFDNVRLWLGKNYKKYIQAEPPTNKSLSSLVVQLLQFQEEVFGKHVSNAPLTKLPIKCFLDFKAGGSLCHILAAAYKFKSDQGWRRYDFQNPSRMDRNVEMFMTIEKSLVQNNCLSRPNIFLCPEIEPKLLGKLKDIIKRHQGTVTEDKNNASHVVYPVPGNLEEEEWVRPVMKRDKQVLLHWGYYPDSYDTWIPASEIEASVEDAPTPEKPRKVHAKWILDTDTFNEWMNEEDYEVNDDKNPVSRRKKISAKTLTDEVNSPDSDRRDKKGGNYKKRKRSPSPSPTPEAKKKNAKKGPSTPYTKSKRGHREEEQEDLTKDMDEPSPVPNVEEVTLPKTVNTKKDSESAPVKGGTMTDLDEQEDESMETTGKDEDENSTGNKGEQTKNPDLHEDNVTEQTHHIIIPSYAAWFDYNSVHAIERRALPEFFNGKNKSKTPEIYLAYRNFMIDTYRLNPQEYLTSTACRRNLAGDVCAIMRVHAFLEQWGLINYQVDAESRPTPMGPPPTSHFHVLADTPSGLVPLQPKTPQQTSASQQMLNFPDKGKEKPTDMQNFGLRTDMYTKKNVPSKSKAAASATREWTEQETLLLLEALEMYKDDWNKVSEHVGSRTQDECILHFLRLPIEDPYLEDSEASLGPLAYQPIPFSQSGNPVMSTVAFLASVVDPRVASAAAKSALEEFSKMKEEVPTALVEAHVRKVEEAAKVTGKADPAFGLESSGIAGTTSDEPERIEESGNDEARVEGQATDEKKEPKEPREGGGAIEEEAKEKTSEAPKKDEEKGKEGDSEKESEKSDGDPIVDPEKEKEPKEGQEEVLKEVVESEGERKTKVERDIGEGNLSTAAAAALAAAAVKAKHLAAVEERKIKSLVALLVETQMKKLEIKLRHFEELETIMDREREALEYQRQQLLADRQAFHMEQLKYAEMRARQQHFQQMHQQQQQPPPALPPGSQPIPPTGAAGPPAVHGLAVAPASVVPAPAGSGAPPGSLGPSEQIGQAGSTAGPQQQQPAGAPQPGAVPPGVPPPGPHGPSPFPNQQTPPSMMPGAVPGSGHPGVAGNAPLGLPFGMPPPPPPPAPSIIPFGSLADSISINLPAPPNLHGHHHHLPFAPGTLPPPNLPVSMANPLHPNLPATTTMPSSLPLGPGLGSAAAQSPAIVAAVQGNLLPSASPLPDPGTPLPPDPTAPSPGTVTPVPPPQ
UniProt P51532: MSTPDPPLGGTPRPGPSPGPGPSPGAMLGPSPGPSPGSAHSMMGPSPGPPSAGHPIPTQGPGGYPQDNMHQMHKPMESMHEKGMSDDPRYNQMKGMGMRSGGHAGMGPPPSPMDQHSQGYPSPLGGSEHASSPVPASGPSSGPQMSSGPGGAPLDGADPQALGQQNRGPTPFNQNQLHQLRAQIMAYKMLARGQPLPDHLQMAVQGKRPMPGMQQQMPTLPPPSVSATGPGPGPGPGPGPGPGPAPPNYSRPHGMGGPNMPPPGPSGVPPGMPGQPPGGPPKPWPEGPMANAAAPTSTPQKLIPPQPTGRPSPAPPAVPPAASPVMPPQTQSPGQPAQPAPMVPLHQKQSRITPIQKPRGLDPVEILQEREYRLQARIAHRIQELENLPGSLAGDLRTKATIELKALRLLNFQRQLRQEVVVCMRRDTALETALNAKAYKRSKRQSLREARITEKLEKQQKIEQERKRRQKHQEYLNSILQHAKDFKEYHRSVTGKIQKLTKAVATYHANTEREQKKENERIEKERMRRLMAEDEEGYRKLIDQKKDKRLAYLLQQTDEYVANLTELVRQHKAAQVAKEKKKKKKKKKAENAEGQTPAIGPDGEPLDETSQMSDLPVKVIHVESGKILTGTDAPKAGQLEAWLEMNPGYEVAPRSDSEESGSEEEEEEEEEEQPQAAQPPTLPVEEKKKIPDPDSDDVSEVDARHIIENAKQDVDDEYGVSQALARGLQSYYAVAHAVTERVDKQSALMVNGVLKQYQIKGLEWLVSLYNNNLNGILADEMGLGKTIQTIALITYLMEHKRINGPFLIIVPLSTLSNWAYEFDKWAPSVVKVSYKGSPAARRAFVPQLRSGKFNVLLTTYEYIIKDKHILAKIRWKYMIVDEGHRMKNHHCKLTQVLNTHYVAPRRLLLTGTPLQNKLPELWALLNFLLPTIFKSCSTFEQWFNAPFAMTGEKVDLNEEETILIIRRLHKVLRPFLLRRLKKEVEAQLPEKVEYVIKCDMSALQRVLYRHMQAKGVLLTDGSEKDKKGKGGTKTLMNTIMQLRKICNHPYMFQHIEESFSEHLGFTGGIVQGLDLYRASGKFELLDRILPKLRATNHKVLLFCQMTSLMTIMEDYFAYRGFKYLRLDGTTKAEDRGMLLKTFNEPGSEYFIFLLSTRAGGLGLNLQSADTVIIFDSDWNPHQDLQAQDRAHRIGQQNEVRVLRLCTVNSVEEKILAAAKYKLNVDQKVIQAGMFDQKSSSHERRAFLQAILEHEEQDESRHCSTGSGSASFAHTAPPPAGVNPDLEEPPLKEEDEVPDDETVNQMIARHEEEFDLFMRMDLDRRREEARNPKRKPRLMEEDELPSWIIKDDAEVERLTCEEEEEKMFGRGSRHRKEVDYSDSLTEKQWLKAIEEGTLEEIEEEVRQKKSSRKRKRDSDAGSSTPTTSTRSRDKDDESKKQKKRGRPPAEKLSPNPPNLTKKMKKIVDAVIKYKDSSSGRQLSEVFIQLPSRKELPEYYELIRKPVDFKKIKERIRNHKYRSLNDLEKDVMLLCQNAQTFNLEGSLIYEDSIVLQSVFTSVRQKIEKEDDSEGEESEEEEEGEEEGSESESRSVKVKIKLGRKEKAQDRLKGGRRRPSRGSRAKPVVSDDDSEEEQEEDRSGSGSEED
UniProt P51531: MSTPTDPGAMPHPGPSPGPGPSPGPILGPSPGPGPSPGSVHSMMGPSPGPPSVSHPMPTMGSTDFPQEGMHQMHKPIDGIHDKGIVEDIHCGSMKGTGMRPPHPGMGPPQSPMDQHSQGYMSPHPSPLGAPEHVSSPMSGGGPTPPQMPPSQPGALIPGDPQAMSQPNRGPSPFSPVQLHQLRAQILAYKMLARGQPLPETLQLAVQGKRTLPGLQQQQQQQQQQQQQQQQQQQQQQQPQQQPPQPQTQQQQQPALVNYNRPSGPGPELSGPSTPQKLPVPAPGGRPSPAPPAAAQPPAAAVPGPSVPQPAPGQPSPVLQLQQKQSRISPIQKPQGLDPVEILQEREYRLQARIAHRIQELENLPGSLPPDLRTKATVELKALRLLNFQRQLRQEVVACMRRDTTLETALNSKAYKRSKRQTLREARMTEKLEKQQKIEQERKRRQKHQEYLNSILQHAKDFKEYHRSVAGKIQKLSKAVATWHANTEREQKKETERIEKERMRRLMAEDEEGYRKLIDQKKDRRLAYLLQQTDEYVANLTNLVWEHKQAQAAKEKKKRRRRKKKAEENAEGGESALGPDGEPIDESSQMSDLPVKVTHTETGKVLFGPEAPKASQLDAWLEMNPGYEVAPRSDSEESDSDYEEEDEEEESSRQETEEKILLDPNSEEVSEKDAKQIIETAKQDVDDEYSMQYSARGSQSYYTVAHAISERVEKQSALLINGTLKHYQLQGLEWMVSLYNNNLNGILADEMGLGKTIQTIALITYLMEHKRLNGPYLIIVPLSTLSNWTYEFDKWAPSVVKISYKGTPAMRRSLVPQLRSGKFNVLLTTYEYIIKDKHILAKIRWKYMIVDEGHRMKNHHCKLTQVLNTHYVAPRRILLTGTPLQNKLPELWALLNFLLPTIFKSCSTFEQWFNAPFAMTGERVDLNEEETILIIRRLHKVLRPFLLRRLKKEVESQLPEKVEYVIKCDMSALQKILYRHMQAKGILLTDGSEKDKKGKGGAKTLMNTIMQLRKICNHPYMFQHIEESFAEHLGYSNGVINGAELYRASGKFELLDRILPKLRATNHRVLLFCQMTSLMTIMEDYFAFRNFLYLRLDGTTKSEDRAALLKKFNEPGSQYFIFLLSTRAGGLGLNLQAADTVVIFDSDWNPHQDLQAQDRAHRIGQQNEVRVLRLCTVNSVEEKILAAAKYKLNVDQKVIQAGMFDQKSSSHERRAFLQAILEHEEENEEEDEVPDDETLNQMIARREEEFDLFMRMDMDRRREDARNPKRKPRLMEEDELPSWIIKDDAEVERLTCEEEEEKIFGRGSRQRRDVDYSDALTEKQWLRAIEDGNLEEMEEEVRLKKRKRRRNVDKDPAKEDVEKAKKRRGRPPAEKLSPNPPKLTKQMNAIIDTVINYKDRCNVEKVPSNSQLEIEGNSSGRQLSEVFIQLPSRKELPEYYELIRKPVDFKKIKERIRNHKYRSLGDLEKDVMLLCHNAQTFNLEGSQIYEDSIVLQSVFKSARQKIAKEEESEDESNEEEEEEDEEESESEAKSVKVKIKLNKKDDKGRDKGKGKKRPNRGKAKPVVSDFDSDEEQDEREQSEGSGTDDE

Row | binding [1] | binding [2] | binding [3] | Substance
1 | binds | binds | binds | BRG1 (from UniProt P51532 1-1647)
2 | no binding | binds | binds | BRM (from UniProt P51531 1-1590)
